{
  "source": "paper PMC10287566",
  "about": "“Signaling-specific inhibition of the CB1 receptor for cannabis use disorder: phase 1 and phase 2a randomized trials” (Nature Medicine, 2023)",
  "system": "healthy volunteers",
  "format": "in vivo, human",
  "data": [
    {"compound": "COc1ccc(CO[C@H]2CC[C@@]3(C)C(=CC[C@H]4[C@@H]5CC[C@H](C(C)=O)[C@@]5(C)CC[C@@H]43)C2)cc1", "note": "[AEF0117, 3β-(4-methoxybenzyloxy)pregn-5-en-20-one]", "values": [
      {"measurement": "plasma endocannabinoid (AEA and 2-AG) levels", "setting": "healthy volunteers, single administration", "value": "did not increase"},
      {"measurement": "plasma pregnenolone levels compared to placebo", "setting": "in vivo", "value": "significantly higher"}
    ]}
  ]
}
